2 substances from patent US8518412B2 (Senju Pharmaceutical Co, Ltd., priority 2009, dated 2013) can be followed below.

Some results are limits rather than exact numbers.

The nature of this data set: peptide made by a vendor (Fmoc solid-phase peptide synthesis; HBTU). Particulars: whole synthesis, HPLC A/A %.

Consider Pyr Lac50-94, for which the “final HPLC purity” value is on record as above 90%.
Consider Pyr Lac50-83, for which the “final HPLC purity” value is given as above 92%.
